Measurements reported in PMC6220755.
No constants are given. Whether binding was seen depends on the method and setting. In cells and extracts the contact can be indirect. These calls come from enrichment with a bait or labelling near it, and not all partners need be listed. A no says only that the protein was not detected with the bait.

By UniProt entry, the sequences of proteins in these tests, tags left out. Residues count along the entry.
UniProt P13109, residues 10-154: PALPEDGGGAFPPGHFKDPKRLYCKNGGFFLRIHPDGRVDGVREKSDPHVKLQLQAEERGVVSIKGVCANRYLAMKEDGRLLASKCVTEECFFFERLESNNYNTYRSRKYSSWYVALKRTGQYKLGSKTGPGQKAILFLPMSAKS
UniProt Q07021, residues 74-282: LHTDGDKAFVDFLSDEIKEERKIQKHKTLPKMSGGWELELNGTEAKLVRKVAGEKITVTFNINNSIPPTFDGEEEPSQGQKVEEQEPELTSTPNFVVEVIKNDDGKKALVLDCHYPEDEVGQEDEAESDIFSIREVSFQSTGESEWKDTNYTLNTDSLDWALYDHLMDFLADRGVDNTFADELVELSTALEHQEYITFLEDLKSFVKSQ

Target: lo‐FGF2 (18‐kDa low molecular weight FGF2) used for affinity chromatography (UniProt P13109)
Assay: affinity purification with mass spectrometry; affinity chromatography with hi‐FGF2 and lo‐FGF2, nuclear and cytosolic fractions; bands of 21 to 45 kDa excised, HPLC‐MS; told as 'our previous study', shown in Figure S2

binding: no binding
Substance: C1QBP found by affinity chromatography and mass spectrometry (from UniProt Q07021 74-282)
